Measured values taken from publication PMC6384901 (Molecules, 2019).
HELM strings list residues between dots; [ac] is acetyl, [am] amide, other brackets name non-standard units. One purity is given for all peptides; the source may state it once.

Test: general procedure: Fmoc solid-phase peptide synthesis; Rink amide resin; HBTU/HOBt/NMM
Conditions: whole synthesis, RP-HPLC on analytical C18 column, monitored at 214 nm

Substance	final HPLC purity (scale 0.1 mmol)	also measured
PEPTIDE1{[ac].K.K.[AcK].K.[am]}|PEPTIDE2{G}|PEPTIDE3{G}|CHEM1{[Suberoyl]}$PEPTIDE1,PEPTIDE2,2:R3-1:R2|PEPTIDE1,PEPTIDE3,5:R3-1:R2|PEPTIDE2,CHEM1,1:R1-1:R1|PEPTIDE3,CHEM1,1:R1-1:R2$$$V2.0	–	final HPLC purity (scale of the general procedure 0.1 mmol (5, 6), 0.05 mmol (7)): >95%
PEPTIDE1{[ac].K.K.[AcK].K.M.[am]}|PEPTIDE2{G}|PEPTIDE3{G}|CHEM1{[Suberoyl]}$PEPTIDE1,PEPTIDE2,2:R3-1:R2|PEPTIDE1,PEPTIDE3,5:R3-1:R2|PEPTIDE2,CHEM1,1:R1-1:R1|PEPTIDE3,CHEM1,1:R1-1:R2$$$V2.0	>95%	–
PEPTIDE1{[ac].K.K.[AcK].K.M.[am]}|CHEM1{[Succinoyl]}$PEPTIDE1,CHEM1,2:R3-1:R1|PEPTIDE1,CHEM1,5:R3-1:R2$$$V2.0	>95%	–
PEPTIDE1{[ac].K.R.[MyrK].K.T.[am]}|CHEM1{[Suberoyl]}$PEPTIDE1,CHEM1,2:R3-1:R1|PEPTIDE1,CHEM1,5:R3-1:R2$$$V2.0	–	final HPLC purity (scale 0.05 mmol): >95%
